# Screening data

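Genome-wide siRNA knockdown in TC32 Ewing sarcoma cells, comparing luciferase light from an NR0B1-promoter reporter with a CMV-promoter reporter 48 hours after transfection.
Each siRNA was applied at 20 nM.
A z-score of the log NR0B1-over-CMV signal, less the median of siRNAs with the same seed; more negative means a stronger specific loss of the NR0B1 reporter.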

The strongest results of the screen are mostly left out here.
Sequences are the guide (antisense) strand, without overhang.

* ACAACUUCCACCAUUGACC against PORCN : seed-corrected z-score -0.1277
* AUAGCCCUCAAAAUAAUCC against LYZL4 : seed-corrected z-score 0.1858
* UAUUCUUUUGAUAGGUCCG against SNRNP70 : seed-corrected z-score 1.135
* UAUCUGACGAUGUAGAUUC against KDM6A : seed-corrected z-score -1.334
* UGACAUUCGAGGCACAGCA against SLC52A2 : seed-corrected z-score 0.7034
* UCUGUCACCUUUUAGACCC against COL11A1 : seed-corrected z-score 0.5372
* UCCGUAAUAAAAUUCUUCG against PARP8 : seed-corrected z-score 0.8459
* UUCGCAUCCACCUUGGAAC against ABCC1 : seed-corrected z-score -1.186
* UAUGGUCUGAAUGUGAACC against GOLGA2 : seed-corrected z-score -0.8835
* UACGUUUGCUGUCUCCUCC against MAP1A : seed-corrected z-score 0.8807
* ACUUUGAUCUGCGAUGUGC against PIK3R5 : seed-corrected z-score 0.2941
* AUGUGGACAACCUUUUUCC against RNF151 : seed-corrected z-score 0.1638
* UGACAAUCAAGUAGGACUC against TBCD : seed-corrected z-score -0.3916
* UAAGAACCCAGUCAGAUGU against BMF : seed-corrected z-score 1.525
* UGCUUUAUCAUUAUGUUCC against DNTTIP1 : seed-corrected z-score -1.742
* UCUGGUGCGGGUAAAAGCC against LGI4 : seed-corrected z-score -0.6472
* UUUGCUAGAAAGAUCACUC against KTN1 : seed-corrected z-score -0.2749
* UUAGCCACAGACAGUAAUG against KCNK15 : seed-corrected z-score 0.2345
* UGUAUUCAAAGGUUCUUUC against ZNF382 : seed-corrected z-score -0.1158
* UUGACCACAAUUAUCCAGG against OTOP1 : seed-corrected z-score 0.8068
* UUCAGCAUGAGGUCGACGG against TTLL12 : seed-corrected z-score 0.6724
* AAACUUGCAAUGCGGCUGC against LOC644925 : seed-corrected z-score -0.7382
* UGAUGUUAGAGGAUCAUGG against PAN3 : seed-corrected z-score 0.07597
* UAUUACUUGCUGAUUAUCC against LINC00847 : seed-corrected z-score -0.04178
* UCUCUAAUAAUGCAGUUGC against TEX15 : seed-corrected z-score -0.2299
* CCAGGAAAUGCGCAAAUCG against FOXD4L3 : seed-corrected z-score 0.1644
* UUAAGGCUAAAUUACAGGG against TXK : seed-corrected z-score -0.5428
* AAUGGGACUAAGACUGCAG against MCCD1 : seed-corrected z-score -1.168
* UUCCUGCUGAGUAAUUGGG against AHRR : seed-corrected z-score -0.3916
* AUUGCACAUAGUAUAGUUG against CALCR : seed-corrected z-score 1.776
* AUGGUUGUCAAAACUAGGC against LVRN : seed-corrected z-score -0.3457
* UCUUUGCACACGAACUUGU against LHX5 : seed-corrected z-score -0.5854
* UAACUUCCAACGACUCCUG against PDE4A : seed-corrected z-score -0.565
* UUUUCGUCCAGUUCAUAGC against VTN : seed-corrected z-score 0.2154
* UCUGAAUCCAGGUACCAUG against MAP3K11 : seed-corrected z-score -0.414
* UUCAAUCUCAGCCCGUAGC against KRT76 : seed-corrected z-score -0.06273
* UUAGGUUGACAGUCUGACC against ARHGAP12 : seed-corrected z-score 0.01655
* UCACUGAAGAGUGUGACGG against PGF : seed-corrected z-score 0.5707
* AAGGUGACCAGAUUCCAGC against SELT : seed-corrected z-score -1.376
* AAGUGGUAAAGUAAUGGGC against METTL4 : seed-corrected z-score -0.1653
* UAUCUAGAAGAUUAUGUAG against ARL8B : seed-corrected z-score -0.1931
* UUCCUAGAAGCUGAGGUUG against CDCA7L : seed-corrected z-score 0.7089
* UCUAAGAAGGUGUACGUGC against NDUFV3 : seed-corrected z-score 0.05608
* UUUAGGAAAGUGUAGAAUU against GPX3 : seed-corrected z-score -0.02863
* UACAUCUCUCGAAAUGAUC against CRLS1 : seed-corrected z-score -1.897
* UUAUGAUUAGCCUAUCAGC against WDR5B : seed-corrected z-score 0.7357
* UGGUGAUACAGGAAGGUGG against IRG1 : seed-corrected z-score -0.2509
* AUGCCUUUGACUGAGAUCC against CPZ : seed-corrected z-score -0.09687
* AAACGAUUGAUUCGCAGUC against EPB41L2 : seed-corrected z-score 0.2343

For reference, 3 entries once more:

{"sirna": "UCUAAGAAGGUGUACGUGC", "target gene": "NDUFV3", "seed-corrected z-score": "0.05608"}
{"sirna": "UGACAUUCGAGGCACAGCA", "target gene": "SLC52A2", "seed-corrected z-score": "0.7034"}
{"sirna": "UUCAGCAUGAGGUCGACGG", "target gene": "TTLL12", "seed-corrected z-score": "0.6724"}

Data taken from PubChem BioAssay AID1159506, deposited by NCATS (2015).